The test system of the data set is FANCD2 WT + FANCI. The experiment in a line: EMSA. The conditions noted are these: CK2 phosphorylated, marked reduction vs mock; EMSA: 1 nM DNA, 25 mM Tris-HCl pH 7.5, 100 mM NaCl, 1 mM EDTA, 6% glycerol, 1 mM DTT, room temperature 1 h; 4% PAGE 0.4x TBE at 4 C; recombinant protein.

For at least one entry, the source does not settle the construct or the ends of the probe. Weaker means in comparison with the reference protein, sequence or condition of that experiment.

As for “CATTGTGAATTCGCCTCTCTGTCTAGCCGAAGCTCGAAACGATCTTGTGC / GTCCATCAAAGTTCGACTGTGCGGCTAGACAGAGAGGCGAATTCACAATG [ICL14 Y-shaped DNA]”, the binding result is “binds more weakly”.

(Values after article PMC6581795, “Phosphorylation of FANCD2 Inhibits the FANCD2/FANCI Complex and Suppresses the Fanconi Anemia Pathway in the Absence of DNA Damage”.)
